PubChem BioAssay AID686937, Drosophila RNAi Screening Center, 2013

- Assay: 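Knock-downs that reduce output of a secreted reporter enzyme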 (primary screen)
- System: Drosophila S2 cells expressing secreted horseradish peroxidase
- Knock-down reagent: long dsRNA against Drosophila genes
- Duration: about 5.5 days (5 days dsRNA, then 12 h reporter induction)
- Treatment: reporter expression induced after 5 days of dsRNA, read 12 h later; inducer not stated
- Detection: 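After 5 days of dsRNA and 12 h of reporter induction, medium peroxidase read by chemiluminescence and scored as per-plate z-score; higher values mean more reporter released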
- Scale: z-score: higher = more reporter secreted into medium
The deposit covers about 23,000 reagents; this is a random part of those with a known target gene and a result. 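Reduced-secretion tags in replicate 1 do not always agree with the z-scores; no criterion for assigning the tags was given.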 Further read-outs or replicates are left out here. Reagent sequences are not shown. Not stated in the record: the amount of reagent.

The first 2 records, to show the layout:
no.	Target gene	amplicon	z-score, replicate 1	z-score, replicate 2
1	CG32448	DRSC22657	-0.03	0.19
2	Lcp2	DRSC07456	0.46	0.3

Main list, from the first entry:
no.	Target gene	amplicon	z-score, replicate 1	z-score, replicate 2
1	CG32448	DRSC22657	-0.03	0.19
2	Lcp2	DRSC07456	0.46	0.3
3	Surf6	DRSC15588	0.13	0.19
4	CG31551	DRSC12159	0.14	0.3
5	CG31551	DRSC22403	-0.22	-0.1
6	Hayan	DRSC19989	0.22	0.26
7	Hayan	DRSC22231	0.32	0.7
8	obst-B	DRSC01987	0.38	0.35
9	CG34342	DRSC09756	0.72	0.21
10	CG34342	DRSC22515	0.53	0.27
11	Ubc10	DRSC07568	-0.39	-0.59
12	CG11370	DRSC11653	-0.15	-0.81
13	Ptx1	DRSC16804	0.03	0.27
14	alpha-Catr	DRSC04669	-0.12	0
15	Cpr49Aa	DRSC07197	0.29	0.48
16	CG15628	DRSC00256	-1.75	-3.33
17	CG15628	DRSC00463	0.02	0.07
18	CG11626	DRSC14336	0.31	0.01
19	CG6126	DRSC15971	0.25	0.32
20	CG4763	DRSC04009	-1.32	
21	CG4763	DRSC04487	0.09	0.5
22	CG14089	DRSC10093	0.25	0.36
23	por	DRSC20362	0.27	0.5
24	beat-IIIa	DRSC01575	0.32	-0.36
25	beat-IIIa	DRSC01577	-0.12	0.22
26	beat-IIIa	DRSC02178	0.24	0.37
27	CheB42c	DRSC04972	0.19	0.29
28	hkb	DRSC12377	-0.12	0.05
29	CG17192	DRSC15186	0.23	-0.07
30	Nf1	DRSC16758	0.52	0.45
31	Gpb5	DRSC21241	0.64	0.26
32	CG14629	DRSC18476	-0.06	0.12
33	CG13829	DRSC14679	0.36	0.38
